Results are given in words; binding and its absence hold for the method and conditions named. In cells and extracts the contact can be indirect. A yes stands for co-enrichment or nearness to the bait. Other partners may have been found.
Target: T1, GABAA receptor α1 subunit, native, from mouse brain (mouse (endogenous in brain)), P62812
T1 chain: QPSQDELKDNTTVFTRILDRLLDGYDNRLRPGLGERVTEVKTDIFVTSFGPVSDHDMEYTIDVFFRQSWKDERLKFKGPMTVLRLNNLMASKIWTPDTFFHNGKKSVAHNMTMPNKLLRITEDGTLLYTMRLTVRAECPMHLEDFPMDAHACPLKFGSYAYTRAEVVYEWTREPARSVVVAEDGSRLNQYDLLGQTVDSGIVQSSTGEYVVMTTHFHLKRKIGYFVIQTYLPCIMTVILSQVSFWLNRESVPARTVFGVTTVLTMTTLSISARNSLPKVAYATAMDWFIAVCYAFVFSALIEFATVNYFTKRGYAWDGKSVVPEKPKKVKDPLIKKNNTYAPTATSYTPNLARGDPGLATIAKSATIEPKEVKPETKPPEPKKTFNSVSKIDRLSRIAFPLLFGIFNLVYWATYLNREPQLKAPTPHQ
Test: affinity purification with mass spectrometry
Conditions: remark: other sources report otherwise

binding: binds
B1: GABAA receptor α4 subunit, native, from mouse brain, Q9D6F4 36-552 (receptor)
chain: QNSKDEKLCPENFTRILDSLLDGYDNRLRPGFGGPVTEVKTDIYVTSFGPVSDVEMEYTMDVFFRQTWIDKRLKYDGPIEILRLNNMMVTKVWTPDTFFRNGKKSVSHNMTAPNKLFRIMRNGTILYTMRLTISAECPMRLVDFPMDGHACPLKFGSYAYPKSEMIYTWTKGPEKSVEVPKESSSLVQYDLIGQTVSSETIKSITGEYIVMTVYFHLRRKMGYFMIQTYIPCIMTVILSQVSFWINKESVPARTVFGITTVLTMTTLSISARHSLPKVSYATAMDWFIAVCFAFVFSALIEFAAVNYFTNIQMQKAKKKISKPPPEVPAAPVLKEKHTETSLQNTHANLNMRKRTNALVHSESDVKSRTEVGNHSSKTSAVQESSEATPKAHLASSPNPFSRANAAETMSAAARGLSSAASPSPHGTLRPASLGSASTRPAFGSRLGRIKTTVNTTGAAGNVSATPPPPAPPPSGSGTSKIDKYARILFPVTFGAFNMVYWVVYLSKDTMEKSESLM
modifications: here or on the partner: N-glycosylated

— article doi:10.1101/2023.02.16.528867
